Test results published in US9624164B2, “Phenyl carbamate compounds for use in preventing or treating epilepsy” (Bio-Pharm Solutions Co., Ltd., priority 2011, dated 2017).

What was measured:
[1] = test system: male ICR mice; test: MES test (maximal electroshock, corneal electrodes), oral administration, mice; type: in vivo
[2] = test system: male ICR mice; test: scPTZ test (subcutaneous pentylenetetrazol-induced clonic seizure), intraperitoneal administration, mice; type: in vivo
Description: After Peak time (0.5, 1, 2 and 4 hr) from the administration, PTZ (Pentylenetetrazol) was administered subcutaneously in the concentration capable of inducing 97% intermittent convulsions (mice: 100˜110 mg/kg·bw, 100 ul/g, or rats: 90˜110 mg/kg·bw, 20 ul/g). If clonic seizure was not observed for at least 3 seconds in the PTZ administered animal, it can be considered that the test compound has anti-epilepsy activity.

For C[C@H](OC(N)=O)[C@@H](O)c1cccc(Cl)c1Cl [Compound 38, 1-(2,3-dichlorophenyl)-(S)-1-hydroxypropyl-(S)-2-carbamate], the “MES test(po) Peak Time” value [1] was 2 h.

With C[C@@H](OC(N)=O)[C@H](O)c1ccccc1Cl [Compound 2, 1-(2-chlorophenyl)-(R)-1-hydroxypropyl-(R)-2-carbamate] the “ScPTZ test(ip) Peak Time” value [2] was 0.5 h and the “MES test(po) Peak Time” value [1] was 0.25 h.

CC(C)[C@H](OC(N)=O)[C@@H](O)c1c(Cl)cccc1Cl [Compound 42, 1-(2,6-dichlorophenyl)-(S)-1-hydroxy-3-methyl-butyl-(S)-2-carbamate] was tested, and the “MES test(po) Peak Time” value [1] was 0.5 h.

In the case of C[C@@H](OC(N)=O)[C@@H](O)c1ccccc1Cl [Compound 4, 1-(2-chlorophenyl)-(S)-1-hydroxypropyl-(R)-2-carbamate], the “MES test(po) Peak Time” value [1] was 0.5 h.

In the case of C[C@H](OC(N)=O)[C@@H](O)c1ccccc1Cl [Compound 1, 1-(2-chlorophenyl)-(S)-1-hydroxypropyl-(S)-2-carbamate], the “ScPTZ test(ip) Peak Time” value [2] was 2 h and the “MES test(po) Peak Time” value [1] was 2 h.

With CC(OC(N)=O)C(O)c1ccccc1Cl (racemic) [Compound 3, 1-(2-chlorophenyl)-1-hydroxypropyl-2-carbamate] the “ScPTZ test(ip) Peak Time” value [2] was 0.5 h and the “MES test(po) Peak Time” value [1] was 2 h.

For C[C@H](OC(N)=O)[C@@H](O)c1c(Cl)cccc1Cl [Compound 37, 1-(2,6-dichlorophenyl)-(S)-1-hydroxypropyl-(S)-2-carbamate], the “ScPTZ test(ip) Peak Time” value [2] was 0.25 h and the “MES test(po) Peak Time” value [1] was 0.25 h.

With CC[C@H](OC(N)=O)[C@@H](O)c1ccccc1Cl [Compound 6, 1-(2-chlorophenyl)-(S)-1-hydroxybutyl-(S)-2-carbamate] the “ScPTZ test(ip) Peak Time” value [2] was 0.5 h and the “MES test(po) Peak Time” value [1] was 1 h.

For CC(C)[C@H](OC(N)=O)[C@@H](O)c1ccccc1Cl [Compound 9, 1-(2-chlorophenyl)-(S)-1-hydroxy-3-methyl-butyl-(S)-2-carbamate], the “MES test(po) Peak Time” value [1] was 0.5 h.

In the case of C[C@@H](OC(N)=O)[C@H](O)c1c(Cl)cccc1Cl [Compound 46, 1-(2,6-dichlorophenyl)-(R)-1-hydroxypropyl-(R)-2-carbamate], the “MES test(po) Peak Time” value [1] was 1 h.

C[C@H](OC(N)=O)[C@H](O)c1ccccc1Cl [Compound 5, 1-(2-chlorophenyl)-(R)-1-hydroxypropyl-(S)-2-carbamate] was tested, and the “ScPTZ test(ip) Peak Time” value [2] was 0.5 h and the “MES test(po) Peak Time” value [1] was 0.5 h.

For CC[C@H](OC(N)=O)[C@@H](O)c1ccc(Cl)cc1Cl [Compound 39, 1-(2,4-dichlorophenyl)-(S)-1-hydroxybutyl-(S)-2-carbamate], the “ScPTZ test(ip) Peak Time” value [2] was 0.5 h and the “MES test(po) Peak Time” value [1] was 1 h.
